Source: PMC6981868, “Repurposing Potential of Riluzole as an ITAF Inhibitor in mTOR Therapy Resistant Glioblastoma” (International Journal of Molecular Sciences, 2020)

Chains of the proteins cited; added tags and fusions are not shown. Lines headed by an entry give the natural chain unless they say otherwise; changes in a name come on top.
UniProt P09651: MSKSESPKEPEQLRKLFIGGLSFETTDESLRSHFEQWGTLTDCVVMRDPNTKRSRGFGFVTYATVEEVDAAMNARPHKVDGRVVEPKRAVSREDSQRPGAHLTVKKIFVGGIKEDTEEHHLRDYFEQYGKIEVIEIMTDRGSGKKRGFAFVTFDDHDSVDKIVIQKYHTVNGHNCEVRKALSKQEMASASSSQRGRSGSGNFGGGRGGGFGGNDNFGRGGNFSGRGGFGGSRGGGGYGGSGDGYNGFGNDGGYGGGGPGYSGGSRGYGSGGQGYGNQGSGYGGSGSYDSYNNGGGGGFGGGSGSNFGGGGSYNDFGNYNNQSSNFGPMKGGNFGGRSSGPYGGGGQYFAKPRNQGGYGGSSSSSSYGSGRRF

Molecular target: T1, hnRNP A1 (Homo sapiens, UniProt P09651)
T1 construct: gene HNRNPA1
Test: biochemical

- Kd: 0.662 µM
SMILES: Nc1nc2ccc(OC(F)(F)F)cc2s1 [riluzole]
